Results from PMC7819943, “Rice protein-binding microarrays: a tool to detect cis-acting elements near promoter regions in rice”.
This is one part of the list.

Sequences of proteins named here, by UniProt entry; tags and fusion partners are left off.
UniProt Q0JBA9, entry or part of it: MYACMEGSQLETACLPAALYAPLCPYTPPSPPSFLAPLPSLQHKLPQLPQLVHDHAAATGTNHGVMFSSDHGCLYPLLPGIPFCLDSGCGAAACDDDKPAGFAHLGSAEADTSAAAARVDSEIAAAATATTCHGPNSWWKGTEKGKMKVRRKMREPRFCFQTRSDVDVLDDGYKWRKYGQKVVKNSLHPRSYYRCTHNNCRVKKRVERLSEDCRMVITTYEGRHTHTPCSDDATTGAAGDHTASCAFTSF

target: OsWRKY34 (Oryza sativa, UniProt Q0JBA9 1-250); assay: protein-binding microarray (RPBM); PBS, 2% BSA, 51.3 ng/ul salmon testes DNA, 50 uM zinc acetate, 200 nM TF, 25 C, 1 h; high values mean tight binding; conditions: protein: recombinant; tags: N-terminal polyhistidine and DsRed monomer fusion (pET32a); label: CyDye5-dUTP incorporated in the synthesized complementary strand; 3' TTTTT single-stranded linker to array surface; dsDNA, one strand shown
How it was run: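 The binding signal is fluorescence intensity per array feature (arbitrary units). Readings came from an Axon 4000B scanner after a washed, 2% BSA-blocked, double-stranded custom Agilent array had been incubated for 1 h at 25 °C with 200 nM protein and 50 µM zinc acetate. The protein was a Ni–NTA-purified transcription factor fused N-terminally to polyhistidine and DsRed, expressed in E. coli BL21-CodonPlus.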

| Sequence | binding signal |
| --- | --- |
| CTCCTCGTATCTTTGTCGGCTGCCAGGCCCTCCGACTTTACGGAGTCACCTAGTGCAG | 10800 fluorescence intensity (a.u.) |
| TTTGTCCGTGGAGGCAAGCTTATGTTCTCATCTATAAATTCGGAGTCACCTAGTGCAG | 9760 fluorescence intensity (a.u.) |
| CTGCCGATTTCGCCGGCTCGATCCCCACCCCGACCCCGCTCGGAGTCACCTAGTGCAG | 8390 fluorescence intensity (a.u.) |
| CGAGAGACTACCGTTATCGTTCTTCAATCTGCTGGATTCACGGAGTCACCTAGTGCAG | 8750 fluorescence intensity (a.u.) |
| TAATTTTTTGTGTAGCTGACATATGGGTCCCATTATTTTTCGGAGTCACCTAGTGCAG | 10100 fluorescence intensity (a.u.) |
| CCTCTCACTGCTAGTGCCCCACACCGTTCTTCGCTGCCCACGGAGTCACCTAGTGCAG | 11800 fluorescence intensity (a.u.) |
| CAGTTTTTCGATGAAATTTCATACGCAATTATTGGTTCAACGGAGTCACCTAGTGCAG | 8040 fluorescence intensity (a.u.) |
| CTCTTATTGTCCCTATCATGACTAAATTGGTTTCCGGCTCCGGAGTCACCTAGTGCAG | 8220 fluorescence intensity (a.u.) |
| CCACACTCCTCGCTCGCCTGCCTCTCTGTTCTTAATTAGCCGGAGTCACCTAGTGCAG | 8750 fluorescence intensity (a.u.) |
| CCCACTCACCAGTCACCACCCAAGTGCACCACCCCTTTTTCGGAGTCACCTAGTGCAG | 9130 fluorescence intensity (a.u.) |
| CCTGCTGCTTCATATGTTCTGCTCTGAACATGGACTGCGCCGGAGTCACCTAGTGCAG | 8320 fluorescence intensity (a.u.) |
| AGGCGTGTCCCGTGTCCGTCCGTGGAGAGGGGAGGGGAGGCGGAGTCACCTAGTGCAG | 10700 fluorescence intensity (a.u.) |
| CAATTATTACAGGCGGCCAGCGCCTCATGGCTTTTACCTTCGGAGTCACCTAGTGCAG | 8660 fluorescence intensity (a.u.) |
| TCCAATTTGGATGGGGTTATTATTTTGTTTGCTCTCTCAACGGAGTCACCTAGTGCAG | 9990 fluorescence intensity (a.u.) |
| CGTTGGTCGGGGAGAGTCAAGAGTTGGGGATATATACATGCGGAGTCACCTAGTGCAG | 9360 fluorescence intensity (a.u.) |
| TTCTTCCCCACTTCACCCGCAAGTTTGCTTAAGCCTGTTCCGGAGTCACCTAGTGCAG | 9310 fluorescence intensity (a.u.) |
| AGCTCCTTGACAGCACTGCATCTTTTATCATACACTTACACGGAGTCACCTAGTGCAG | 9610 fluorescence intensity (a.u.) |
| TCTCTTGCCATTGCAAGCCTTACACGTGACCCTGCGCATGCGGAGTCACCTAGTGCAG | 8780 fluorescence intensity (a.u.) |
| GACTTTATATGTGACTTTTTTTTTAACTTTTTCATAATTTCGGAGTCACCTAGTGCAG | 9730 fluorescence intensity (a.u.) |
| GTCGAGGAGGAGGCGGTGGTGGTGGTGGTGGCGCGGCCGCCGGAGTCACCTAGTGCAG | 10400 fluorescence intensity (a.u.) |
| ATCTAGACCATTATTCTTTTAGTAATTTCAAATTTGTATTCGGAGTCACCTAGTGCAG | 8500 fluorescence intensity (a.u.) |
| GTTGACTATGACAACAGTCGCGACCGACTATTAAGATCCTCGGAGTCACCTAGTGCAG | 8520 fluorescence intensity (a.u.) |
| TAGTAATCCAGGTATTTTAGTCATTTTGCAGCATCACTCACGGAGTCACCTAGTGCAG | 8510 fluorescence intensity (a.u.) |
| AATTTTGATTAATCTCGTATTGGGTTCTTATATGGAAACTCGGAGTCACCTAGTGCAG | 8486 ± 37.5 fluorescence intensity (a.u.) |
| GATTAGGTTTTTCGATTCTCTTTGTAACCCTATCCCCTACCGGAGTCACCTAGTGCAG | 8520 fluorescence intensity (a.u.) |
| AGCCACCAGCCGTGCCGCGCCTCCGTGCCTCTCCGTGCCGCGGAGTCACCTAGTGCAG | 8460 fluorescence intensity (a.u.) |
| CAGCTCAACCATTTCTTCAGTGTATTCTAGAGCTAATTTTCGGAGTCACCTAGTGCAG | 9930 fluorescence intensity (a.u.) |

| Sequence | binding signal |
| --- | --- |
| TCTCCTCGCGCGAGTTCGCCCGCCGCCTGCGCCGATCTCCCGGAGTCACCTAGTGCAG | 9460 fluorescence intensity (a.u.) |
| GTGGCCAACCAACTTTCACGCTCTTTTTTCATTACTTTCTCGGAGTCACCTAGTGCAG | 12800 fluorescence intensity (a.u.) |
| AGGACAGTACTACAGACATAGTTAATGACAGCATACCCATCGGAGTCACCTAGTGCAG | 9080 fluorescence intensity (a.u.) |
| AGTGGGCTGGGATGCTTGTGTTGTGTCTTCTGCTTCCTGGCGGAGTCACCTAGTGCAG | 9770 fluorescence intensity (a.u.) |
| GTTCACCGAGTAGTTATTCTGCATTCATTCAACCAACACACGGAGTCACCTAGTGCAG | 11600 fluorescence intensity (a.u.) |
| TAATGGAAAAAATTGTTTAAAAAAGGTCAAATAGTAAAAACGGAGTCACCTAGTGCAG | 58800 fluorescence intensity (a.u.) |
| AAAAGTTGGGTGGCTATTTTCGTGTGCAGGTGACTTAATACGGAGTCACCTAGTGCAG | 8520 fluorescence intensity (a.u.) |
| ATCGCCACCTCTTTTGTTGCCAAAACAAAGCTTTTGCCCACGGAGTCACCTAGTGCAG | 8160 fluorescence intensity (a.u.) |
| GGCCGGGGAGGGAGGGGCGCCGTCGTCCTGCTGCATCCTGCGGAGTCACCTAGTGCAG | 20700 fluorescence intensity (a.u.) |
| ACCTCCATTCTCTTAGCTCTGATGTATTCTGCTTTTTCATCGGAGTCACCTAGTGCAG | 8120 fluorescence intensity (a.u.) |
| TTCTTTAATTTGCAAAAAATATGTTTGTGAATTCTCACTCCGGAGTCACCTAGTGCAG | 8300 fluorescence intensity (a.u.) |
| TCATCCTGCTGCTGCTCCTCCTGACTTCTCCTTGCGCCGTCGGAGTCACCTAGTGCAG | 8310 fluorescence intensity (a.u.) |
| ACAACTAAATCCCGTCTGCAATTGCTTTTCTTCACAATTACGGAGTCACCTAGTGCAG | 10800 fluorescence intensity (a.u.) |
| CCTGCCCGCCGATCGGCCATCCCCTTGGATCTCGCAGCTTCGGAGTCACCTAGTGCAG | 8730 fluorescence intensity (a.u.) |
| TATCATCAACAATGTTATTGTTCAGTTCATTTCATTTTCACGGAGTCACCTAGTGCAG | 8770 fluorescence intensity (a.u.) |
| GCCGCCTCGTTCGCCTCCGGGTTCCCCTTGTACCCGCTCGCGGAGTCACCTAGTGCAG | 8820 fluorescence intensity (a.u.) |
| CTGCGGCCCGGCGGGAGTGGGAGGGGCGGCGGGCCGGACCCGGAGTCACCTAGTGCAG | 9720 fluorescence intensity (a.u.) |
| ACGACCCTCTACATGTTGCTGCTGGCAGCCGCTCCCTCTCCGGAGTCACCTAGTGCAG | 8660 fluorescence intensity (a.u.) |
| GCCTTGTCTATTGCCTCAGAAGTTGGTTACCCTGTTGTTGCGGAGTCACCTAGTGCAG | 8150 fluorescence intensity (a.u.) |
| ACACCGCCCGCTGCACACCGGCCATCTCCACCACGAACTCCGGAGTCACCTAGTGCAG | 9520 fluorescence intensity (a.u.) |
| AAGTAGTTTTTGTGTTGCTGCTTTTCGCCCTCACAAATATCGGAGTCACCTAGTGCAG | 10800 fluorescence intensity (a.u.) |
| CTGCAGACCCAGCTAGCATAGCCGATGTCTCCTCTTGCTACGGAGTCACCTAGTGCAG | 8640 fluorescence intensity (a.u.) |
| TTATCATGTCAGTACTACTATGCACATATAACTTGTGTACCGGAGTCACCTAGTGCAG | 8020 fluorescence intensity (a.u.) |
| CGCCCTGTTCCTTCCGCCGTACCGCACAGGACGAGGACCACGGAGTCACCTAGTGCAG | 8970 fluorescence intensity (a.u.) |
| CGCCGCCACAACCGCGCGCCGTCACCGCCGCGTGCCGTCACGGAGTCACCTAGTGCAG | 8250 fluorescence intensity (a.u.) |
| TGGGATTAGGGTTCTTGTCTCGGAGAGTCGGAGGCTTTGGCGGAGTCACCTAGTGCAG | 8610 fluorescence intensity (a.u.) |
| ATTGTCCTTGGCTCTCACGATCTCACAATACACCATTAGACGGAGTCACCTAGTGCAG | 9080 fluorescence intensity (a.u.) |

Random excerpt: 4 entries already listed.

| Sequence | binding signal |
| --- | --- |
| GTTGACTATGACAACAGTCGCGACCGACTATTAAGATCCTCGGAGTCACCTAGTGCAG | 8520 fluorescence intensity (a.u.) |
| AGCTCCTTGACAGCACTGCATCTTTTATCATACACTTACACGGAGTCACCTAGTGCAG | 9610 fluorescence intensity (a.u.) |
| AGGCGTGTCCCGTGTCCGTCCGTGGAGAGGGGAGGGGAGGCGGAGTCACCTAGTGCAG | 10700 fluorescence intensity (a.u.) |
| CGCCCTGTTCCTTCCGCCGTACCGCACAGGACGAGGACCACGGAGTCACCTAGTGCAG | 8970 fluorescence intensity (a.u.) |
